According to paper doi:10.1101/325811:
Results are given in words; binding and its absence hold for the method and conditions named. Binding seen in cells or lysates may run through a third protein. Some results given as binding are weak or reduced against the parent protein; the word gives no strength.

Sequences of proteins named here, by UniProt entry; tags and fusion partners are left off. A change or cut given only in a name is not applied to a line headed by its entry.
UniProt Q99525: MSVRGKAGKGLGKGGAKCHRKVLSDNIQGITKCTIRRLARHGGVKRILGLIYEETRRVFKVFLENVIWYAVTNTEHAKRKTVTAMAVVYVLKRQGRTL
UniProt P06748: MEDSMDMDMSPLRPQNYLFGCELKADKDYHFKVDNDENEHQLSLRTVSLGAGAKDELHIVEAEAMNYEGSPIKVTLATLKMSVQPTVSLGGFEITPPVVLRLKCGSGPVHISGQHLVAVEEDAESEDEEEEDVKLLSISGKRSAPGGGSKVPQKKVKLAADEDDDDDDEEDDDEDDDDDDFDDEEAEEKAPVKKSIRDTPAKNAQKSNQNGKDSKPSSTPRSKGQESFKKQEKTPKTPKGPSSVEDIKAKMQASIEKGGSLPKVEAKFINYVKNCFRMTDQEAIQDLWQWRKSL

Target: FLAG-tagged H4G (human) (UniProt Q99525)
Experiment: co-IP

## NPM1 (nucleophosmin/B23) (from UniProt P06748 1-294)
  binding: binds
